Some of these results come from one statement about several compounds together.
Test: Relative Energy Difference (RED) with cholesterol, calculated from HSP
Conditions: RED=Ra/Ro, Ro of cholesterol 12.6
Description: The extent to which two compounds will dissolve each other can be quantified using the equations developed by Hansen: (Ra)^2=4(δd2−δd1)^2+(δp2−δp1)^2+(δh2−δh1)^2 Eq. (1) RED=Ra/Ro Eq. (2)
Equation 1 calculates the relative magnitude difference of the three Hansen parameters of the two compounds to arrive at Ra. […] Equation 2 allows one to calculate the Relative Energy Difference (RED) of the solvent and the material we are trying to dissolve, by dividing Ra by Ro. Ra was calculated in Equation 1 and measures the magnitude of the difference of the HSP values of the two compounds. The units for the HSP parameters δd, δp, δh are MPa^1/2. […] The Relative Energy Difference (RED) is a dimensionless number which quantifies how well a solvent will dissolve a solute. For an RED>>1 the compounds will not dissolve. For an RED˜1, there will be some dissolution. For an RED<1 there will be a considerable amount of dissolution. Essentially, the smaller RED value, the more solute will dissolve into the solvent, with RED=1 being a threshold where a given solute is starting to be soluble in a given solvent. […]
The δdm, δpm, δhm calculated using Eq. 9 are the Hansen solubility parameters of the homogenous mixture, where m denotes mixture, and fi depicts the fraction of each of the n components used to fabricate the biocompatible solvent. […]

| Compound | Relative Energy Difference (RED) with cholesterol (listed as carvacrol) | Relative Energy Difference (RED) with cholesterol |
| --- | --- | --- |
| Cc1ccc(C(C)C)cc1O [Carvacrol] | less than 0.7 |  |
| terpinene |  | less than 0.7 |

From patent US11123292B2, “Use of biocompatible microdroplets for the treatment of atherosclerosis, heart disease and stroke” (priority 2014, dated 2021)
